PMC2996967

Tests used:
[1] = tested on: bTTF1 (TTF-1, bacterially produced and purified); test: EMSA; conditions: 10 mM HEPES pH 7.9, 10% glycerol, 0.1 mM EDTA, 8 mM MgCl2, 1 mM DTT, 0.15 ug/ml poly(dI-dC), 30 min, room temperature; 6% native PAGE; recombinant protein; label: 32P
[2] = biological target: T1, TTF-1 in PC Cl3 extract (UniProt P23441); test: EMSA supershift; conditions: anti-TTF-1, PC Cl3 extract; 10 mM HEPES pH 7.9, 10% glycerol, 0.1 mM EDTA, 8 mM MgCl2, 1 mM DTT, 0.15 ug/ml poly(dI-dC), 30 min, room temperature; 6% native PAGE; protein in an extract; label: 32P
T1 sequence (looked up, limits assumed): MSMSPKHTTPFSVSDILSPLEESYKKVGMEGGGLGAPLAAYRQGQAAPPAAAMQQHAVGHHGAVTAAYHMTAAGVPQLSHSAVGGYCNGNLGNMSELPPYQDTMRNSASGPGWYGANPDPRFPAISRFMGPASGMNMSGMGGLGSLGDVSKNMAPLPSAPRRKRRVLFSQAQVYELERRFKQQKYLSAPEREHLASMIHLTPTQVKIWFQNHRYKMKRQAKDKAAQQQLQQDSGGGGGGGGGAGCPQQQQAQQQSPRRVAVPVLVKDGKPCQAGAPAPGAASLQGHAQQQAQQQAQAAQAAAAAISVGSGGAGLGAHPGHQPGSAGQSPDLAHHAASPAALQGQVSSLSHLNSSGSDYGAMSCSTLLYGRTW

| Sequence | binding result [1] | binding result [2] |
| --- | --- | --- |
| CGCACAAGAGCCCTTCTCAAGGGAT (double strand) [FT-1] | binds | binds |
| GAGAACGTTTATAAGTGTCTGGCTG (double strand) [FT-6] | binds | binds |

The exact form of at least one protein or probe is not confirmed. For some of these results: Where cells or extracts were used, other partners may take part. For some of these results: Tags and fusion partners may be left off the protein sequences shown.
